Experimental data reported in patent publication US20220056135A1.
Results are given in words; binding and its absence hold for the method and conditions named. Some entries that bind do so weakly or less than the wild type.

The chains behind the UniProt entries cited, without tags or fusion partners. Where a name states a change or a piece, a line headed by the entry shows the natural chain unless it says otherwise. Residues count along the entry.
UniProt Q15116: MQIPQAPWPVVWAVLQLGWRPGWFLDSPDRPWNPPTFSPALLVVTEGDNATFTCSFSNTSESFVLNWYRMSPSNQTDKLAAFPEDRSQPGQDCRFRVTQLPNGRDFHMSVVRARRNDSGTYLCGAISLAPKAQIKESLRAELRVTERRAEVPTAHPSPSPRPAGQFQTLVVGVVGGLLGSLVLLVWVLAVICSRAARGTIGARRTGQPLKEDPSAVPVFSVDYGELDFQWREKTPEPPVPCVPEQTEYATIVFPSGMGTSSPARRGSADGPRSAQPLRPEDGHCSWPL
PD-1 on Jurkat cells (PD-1+ CD47+ Jurkat cells; Jurkat stably expressing PD-1): residues 25-288 of Q15116
recombinant hPD1 (Sino Biologicals, reference 10377-H08H): residues 25-167 of Q15116
UniProt P78324: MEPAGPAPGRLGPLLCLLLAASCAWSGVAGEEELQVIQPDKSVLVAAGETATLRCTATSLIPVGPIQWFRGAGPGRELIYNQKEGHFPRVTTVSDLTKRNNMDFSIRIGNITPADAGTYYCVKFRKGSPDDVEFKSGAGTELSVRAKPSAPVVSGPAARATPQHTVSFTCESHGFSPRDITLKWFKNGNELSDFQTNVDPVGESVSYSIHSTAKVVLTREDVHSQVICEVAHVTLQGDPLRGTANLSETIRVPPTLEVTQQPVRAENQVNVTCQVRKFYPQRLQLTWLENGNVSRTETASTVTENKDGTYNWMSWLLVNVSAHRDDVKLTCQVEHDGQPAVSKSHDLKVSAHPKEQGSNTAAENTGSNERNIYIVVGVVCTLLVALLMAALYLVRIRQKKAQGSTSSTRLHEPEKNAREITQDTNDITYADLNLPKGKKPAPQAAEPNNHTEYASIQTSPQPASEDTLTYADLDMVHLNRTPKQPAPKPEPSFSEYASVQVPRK

Key:
[1] = target: PD-1 on Jurkat cells (PD-1+ CD47+ Jurkat cells; Jurkat stably expressing PD-1) (UniProt Q15116); experiment: flow cytometry on Jurkat cells, 4.5 nM, anti IgG-PE; ratio of the median fluorescence on PD-1+CD47+ cells over that on CD47+ cells
[2] = target: recombinant hPD1 (Sino Biologicals, reference 10377-H08H) (human) (UniProt Q15116); experiment: ELISA on immobilised recombinant human PD-1, anti-human Fc peroxidase (FIG. 1A, humanized)
[3] = target: recombinant hPD1 (Sino Biologicals, reference 10377-H08H) (human) (UniProt Q15116); experiment: ELISA, human recombinant PD-1 immobilised, detection with anti-human Fc-peroxidase, TMB
[4] = target: recombinant hPD1 (Sino Biologicals, reference 10377-H08H) (human) (UniProt Q15116); experiment: ELISA on immobilised recombinant human PD-1, anti-human Fc peroxidase (FIG. 1B, humanized)

binding [1] | binding [2] | binding [3] | binding [4] | Substance
binds | – | – | – | Bicki anti-PD1VH-SIRPa, humanized (VH SEQ ID NO: 24, VL SEQ ID NO: 28) (from UniProt P78324 31-373)
– | binds | binds | – | anti-PD1VH-SIRPa antibody, humanized (VH SEQ ID NO: 18, VL SEQ ID NO: 28), SIRPa fused to the heavy chain (from UniProt P78324 31-373)
– | – | binds | binds | anti-PD1VL-SIRPa antibody, humanized (VH SEQ ID NO: 18, VL SEQ ID NO: 28), SIRPa fused to the light chain (from UniProt P78324 31-373)
